Assay results taken from the supplement of paper PMC10849652.
The list shows a part of the results.

Sequences of proteins named here, by UniProt entry; tags and fusion partners are left off. A change or cut given only in a name is not applied to a line headed by its entry.
UniProt P27469: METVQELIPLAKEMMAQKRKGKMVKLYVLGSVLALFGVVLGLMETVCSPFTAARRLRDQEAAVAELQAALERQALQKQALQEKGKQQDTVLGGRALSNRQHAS
UniProt Q8TET4: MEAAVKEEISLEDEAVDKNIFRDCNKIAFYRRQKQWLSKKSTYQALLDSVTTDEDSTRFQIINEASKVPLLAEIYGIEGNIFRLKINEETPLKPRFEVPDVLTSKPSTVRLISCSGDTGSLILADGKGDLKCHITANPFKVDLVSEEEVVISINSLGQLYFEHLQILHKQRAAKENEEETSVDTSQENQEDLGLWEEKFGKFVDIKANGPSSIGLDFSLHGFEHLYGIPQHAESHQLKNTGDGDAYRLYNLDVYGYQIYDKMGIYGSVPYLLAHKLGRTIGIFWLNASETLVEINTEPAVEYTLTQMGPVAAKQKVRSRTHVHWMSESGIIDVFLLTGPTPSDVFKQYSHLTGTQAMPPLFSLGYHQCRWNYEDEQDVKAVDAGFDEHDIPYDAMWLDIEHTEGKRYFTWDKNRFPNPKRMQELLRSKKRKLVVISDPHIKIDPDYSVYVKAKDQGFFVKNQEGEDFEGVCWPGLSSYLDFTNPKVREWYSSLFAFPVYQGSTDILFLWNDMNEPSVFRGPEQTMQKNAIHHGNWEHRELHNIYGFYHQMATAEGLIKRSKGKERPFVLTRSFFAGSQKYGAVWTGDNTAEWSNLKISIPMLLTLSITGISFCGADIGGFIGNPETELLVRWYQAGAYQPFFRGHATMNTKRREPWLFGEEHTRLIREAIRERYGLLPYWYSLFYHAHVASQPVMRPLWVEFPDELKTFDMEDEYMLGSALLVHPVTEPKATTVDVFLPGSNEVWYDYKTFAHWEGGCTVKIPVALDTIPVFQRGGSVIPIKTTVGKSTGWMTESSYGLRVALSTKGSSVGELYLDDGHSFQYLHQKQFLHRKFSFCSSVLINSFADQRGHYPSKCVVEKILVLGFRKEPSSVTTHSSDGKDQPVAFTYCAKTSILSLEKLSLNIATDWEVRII
UniProt Q9UM11, whole entry, looked up: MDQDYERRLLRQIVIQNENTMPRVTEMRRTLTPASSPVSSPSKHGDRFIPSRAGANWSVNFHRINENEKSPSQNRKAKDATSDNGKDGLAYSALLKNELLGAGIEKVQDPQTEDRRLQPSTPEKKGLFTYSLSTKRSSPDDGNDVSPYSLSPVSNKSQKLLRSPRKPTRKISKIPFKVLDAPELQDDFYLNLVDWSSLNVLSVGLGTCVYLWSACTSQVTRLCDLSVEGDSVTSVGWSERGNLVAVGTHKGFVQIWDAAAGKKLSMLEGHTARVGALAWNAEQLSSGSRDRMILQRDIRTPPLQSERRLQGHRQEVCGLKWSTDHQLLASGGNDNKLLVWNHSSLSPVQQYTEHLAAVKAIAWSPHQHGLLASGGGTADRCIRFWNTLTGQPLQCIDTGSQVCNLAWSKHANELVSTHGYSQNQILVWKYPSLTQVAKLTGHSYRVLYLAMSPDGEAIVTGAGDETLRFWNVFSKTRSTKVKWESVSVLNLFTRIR
UniProt Q06547, whole entry, looked up: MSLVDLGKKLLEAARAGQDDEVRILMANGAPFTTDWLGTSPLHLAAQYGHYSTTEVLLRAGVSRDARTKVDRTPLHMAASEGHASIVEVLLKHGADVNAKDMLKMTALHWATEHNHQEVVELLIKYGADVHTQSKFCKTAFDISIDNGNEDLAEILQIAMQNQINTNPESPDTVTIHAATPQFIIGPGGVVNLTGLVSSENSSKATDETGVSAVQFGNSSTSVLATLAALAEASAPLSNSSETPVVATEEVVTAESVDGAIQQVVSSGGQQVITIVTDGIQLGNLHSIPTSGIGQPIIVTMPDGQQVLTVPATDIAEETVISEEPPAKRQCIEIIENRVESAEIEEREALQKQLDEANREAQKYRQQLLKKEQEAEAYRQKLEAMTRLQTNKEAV
UniProt Q9H840: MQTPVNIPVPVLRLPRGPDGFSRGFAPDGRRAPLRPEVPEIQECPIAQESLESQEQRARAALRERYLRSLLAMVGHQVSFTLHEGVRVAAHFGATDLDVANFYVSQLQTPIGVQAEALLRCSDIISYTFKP
UniProt P04406: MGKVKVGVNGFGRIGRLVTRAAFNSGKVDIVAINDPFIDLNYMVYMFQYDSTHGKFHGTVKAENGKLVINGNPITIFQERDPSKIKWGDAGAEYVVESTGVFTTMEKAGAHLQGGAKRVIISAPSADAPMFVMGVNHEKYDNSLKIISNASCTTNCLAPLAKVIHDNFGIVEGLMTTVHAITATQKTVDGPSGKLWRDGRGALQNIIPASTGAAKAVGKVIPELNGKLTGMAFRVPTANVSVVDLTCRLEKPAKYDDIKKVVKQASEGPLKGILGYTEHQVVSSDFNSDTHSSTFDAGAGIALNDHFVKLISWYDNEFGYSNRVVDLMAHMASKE
UniProt P01275: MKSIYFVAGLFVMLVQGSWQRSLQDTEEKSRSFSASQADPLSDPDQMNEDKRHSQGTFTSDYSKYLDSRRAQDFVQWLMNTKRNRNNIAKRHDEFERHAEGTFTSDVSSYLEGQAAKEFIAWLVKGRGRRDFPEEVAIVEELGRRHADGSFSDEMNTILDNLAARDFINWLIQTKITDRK
UniProt Q3B7J2: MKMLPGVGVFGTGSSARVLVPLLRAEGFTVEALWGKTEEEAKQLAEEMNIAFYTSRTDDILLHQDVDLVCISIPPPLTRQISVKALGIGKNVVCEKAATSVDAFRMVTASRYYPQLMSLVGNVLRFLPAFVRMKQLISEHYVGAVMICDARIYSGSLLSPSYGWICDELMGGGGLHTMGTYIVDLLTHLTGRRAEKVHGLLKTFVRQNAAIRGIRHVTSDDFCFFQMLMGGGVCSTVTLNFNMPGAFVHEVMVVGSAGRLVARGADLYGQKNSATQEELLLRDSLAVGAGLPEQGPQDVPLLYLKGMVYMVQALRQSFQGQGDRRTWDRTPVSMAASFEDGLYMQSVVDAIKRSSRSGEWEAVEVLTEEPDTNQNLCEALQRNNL
UniProt Q14697: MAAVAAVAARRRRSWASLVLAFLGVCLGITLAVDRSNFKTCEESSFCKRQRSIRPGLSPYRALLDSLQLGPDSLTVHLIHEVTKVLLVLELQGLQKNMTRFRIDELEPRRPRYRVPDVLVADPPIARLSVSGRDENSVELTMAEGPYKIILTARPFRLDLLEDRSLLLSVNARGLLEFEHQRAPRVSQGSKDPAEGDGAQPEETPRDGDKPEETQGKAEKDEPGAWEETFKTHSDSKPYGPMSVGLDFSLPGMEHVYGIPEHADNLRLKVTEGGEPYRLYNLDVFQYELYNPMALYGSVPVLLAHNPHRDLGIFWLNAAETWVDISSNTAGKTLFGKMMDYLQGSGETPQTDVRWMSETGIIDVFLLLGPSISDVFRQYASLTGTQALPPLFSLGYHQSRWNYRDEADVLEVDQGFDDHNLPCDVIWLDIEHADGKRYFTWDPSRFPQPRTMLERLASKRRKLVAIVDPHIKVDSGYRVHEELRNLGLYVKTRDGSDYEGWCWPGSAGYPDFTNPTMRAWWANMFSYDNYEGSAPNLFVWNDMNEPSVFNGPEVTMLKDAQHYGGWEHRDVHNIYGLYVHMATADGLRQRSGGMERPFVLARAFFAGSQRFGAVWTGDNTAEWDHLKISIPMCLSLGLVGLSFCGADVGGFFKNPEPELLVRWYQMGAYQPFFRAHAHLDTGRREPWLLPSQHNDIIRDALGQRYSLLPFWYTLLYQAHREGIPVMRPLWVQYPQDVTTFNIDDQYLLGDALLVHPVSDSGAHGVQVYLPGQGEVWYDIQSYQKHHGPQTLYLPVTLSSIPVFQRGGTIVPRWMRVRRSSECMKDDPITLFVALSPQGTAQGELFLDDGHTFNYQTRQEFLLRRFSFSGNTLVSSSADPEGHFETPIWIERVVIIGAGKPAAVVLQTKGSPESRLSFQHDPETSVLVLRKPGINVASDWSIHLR
UniProt Q14435: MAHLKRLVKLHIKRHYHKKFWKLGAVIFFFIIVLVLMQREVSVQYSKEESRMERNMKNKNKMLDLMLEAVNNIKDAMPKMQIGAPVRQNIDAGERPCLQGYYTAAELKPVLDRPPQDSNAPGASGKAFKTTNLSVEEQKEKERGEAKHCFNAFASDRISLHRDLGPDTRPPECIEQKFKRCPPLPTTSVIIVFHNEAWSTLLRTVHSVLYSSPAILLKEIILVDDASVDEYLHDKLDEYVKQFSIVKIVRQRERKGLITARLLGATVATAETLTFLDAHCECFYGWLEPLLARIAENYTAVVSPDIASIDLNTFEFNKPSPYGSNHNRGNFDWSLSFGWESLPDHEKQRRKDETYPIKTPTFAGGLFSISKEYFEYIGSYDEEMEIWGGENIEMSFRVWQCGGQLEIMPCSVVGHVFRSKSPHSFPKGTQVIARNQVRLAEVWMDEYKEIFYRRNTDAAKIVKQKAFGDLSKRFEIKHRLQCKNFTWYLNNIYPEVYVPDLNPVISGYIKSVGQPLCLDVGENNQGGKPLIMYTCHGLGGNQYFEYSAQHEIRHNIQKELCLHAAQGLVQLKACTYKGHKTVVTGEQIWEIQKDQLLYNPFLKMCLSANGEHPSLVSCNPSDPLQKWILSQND
UniProt Q9BVM4: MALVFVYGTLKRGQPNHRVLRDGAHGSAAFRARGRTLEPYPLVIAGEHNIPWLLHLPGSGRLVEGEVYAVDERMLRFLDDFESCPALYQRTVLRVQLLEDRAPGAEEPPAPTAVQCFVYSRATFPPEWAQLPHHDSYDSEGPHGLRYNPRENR
UniProt Q5JV73, whole entry, looked up: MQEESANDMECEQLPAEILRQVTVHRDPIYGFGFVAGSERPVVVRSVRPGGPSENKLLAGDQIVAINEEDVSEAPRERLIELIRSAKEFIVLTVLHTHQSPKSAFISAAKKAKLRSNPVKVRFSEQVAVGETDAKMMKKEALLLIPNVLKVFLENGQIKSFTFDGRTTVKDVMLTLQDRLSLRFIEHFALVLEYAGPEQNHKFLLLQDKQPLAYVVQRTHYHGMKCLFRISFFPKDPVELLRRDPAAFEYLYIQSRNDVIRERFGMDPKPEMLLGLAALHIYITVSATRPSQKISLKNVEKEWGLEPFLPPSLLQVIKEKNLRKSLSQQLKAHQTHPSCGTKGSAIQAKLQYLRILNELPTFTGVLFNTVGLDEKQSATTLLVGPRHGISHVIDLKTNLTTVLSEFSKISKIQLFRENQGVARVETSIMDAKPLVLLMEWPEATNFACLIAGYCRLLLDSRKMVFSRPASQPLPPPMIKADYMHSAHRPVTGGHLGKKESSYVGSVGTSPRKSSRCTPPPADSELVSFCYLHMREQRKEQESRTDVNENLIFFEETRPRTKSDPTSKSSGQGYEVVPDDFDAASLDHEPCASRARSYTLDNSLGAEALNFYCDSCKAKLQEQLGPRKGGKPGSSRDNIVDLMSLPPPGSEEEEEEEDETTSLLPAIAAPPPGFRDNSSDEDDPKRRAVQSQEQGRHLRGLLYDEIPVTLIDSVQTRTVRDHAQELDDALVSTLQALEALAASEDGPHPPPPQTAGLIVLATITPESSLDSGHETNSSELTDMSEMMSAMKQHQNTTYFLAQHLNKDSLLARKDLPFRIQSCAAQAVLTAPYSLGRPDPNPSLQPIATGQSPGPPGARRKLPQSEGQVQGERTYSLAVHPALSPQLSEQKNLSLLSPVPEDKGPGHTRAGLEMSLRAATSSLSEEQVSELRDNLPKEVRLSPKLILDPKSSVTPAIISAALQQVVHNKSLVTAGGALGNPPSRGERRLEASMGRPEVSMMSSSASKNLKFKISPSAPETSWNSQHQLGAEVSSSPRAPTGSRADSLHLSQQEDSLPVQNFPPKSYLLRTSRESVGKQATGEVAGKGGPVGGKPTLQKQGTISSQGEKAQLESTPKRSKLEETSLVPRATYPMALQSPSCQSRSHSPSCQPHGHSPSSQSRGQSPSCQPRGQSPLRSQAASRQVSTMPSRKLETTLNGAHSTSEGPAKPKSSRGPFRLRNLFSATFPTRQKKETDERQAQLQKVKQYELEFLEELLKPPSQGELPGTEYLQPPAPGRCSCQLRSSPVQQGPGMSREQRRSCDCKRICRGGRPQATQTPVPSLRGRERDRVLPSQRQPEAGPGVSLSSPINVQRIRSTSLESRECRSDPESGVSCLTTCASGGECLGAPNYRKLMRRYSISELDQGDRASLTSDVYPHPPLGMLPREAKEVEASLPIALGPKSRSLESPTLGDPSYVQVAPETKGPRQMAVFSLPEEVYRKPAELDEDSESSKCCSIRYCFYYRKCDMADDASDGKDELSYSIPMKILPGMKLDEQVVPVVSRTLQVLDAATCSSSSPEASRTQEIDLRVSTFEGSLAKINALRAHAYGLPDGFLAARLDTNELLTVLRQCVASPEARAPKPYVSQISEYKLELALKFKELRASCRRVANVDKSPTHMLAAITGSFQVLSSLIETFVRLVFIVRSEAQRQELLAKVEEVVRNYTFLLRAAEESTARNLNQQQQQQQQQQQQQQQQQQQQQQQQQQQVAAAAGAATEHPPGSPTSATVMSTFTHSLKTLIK

Experiments:
Test in all cases: log2 fold change, soluble protein after heating vs DMSO (PISA); higher = thermal stabilisation; K562 cells, 10 uM, 30 min; active = over 0.2 and 3.5 SD of the protein, either way, in both replicates (recomputed)
crizotinib = compound: C[C@@H](Oc1cc(-c2cnn(C3CCNCC3)c2)cnc1N)c1c(Cl)ccc(F)c1Cl [crizotinib]
Method in brief: (§1)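 Soluble protein was defined as the supernatant after 21,000xg for 90 min. It came from K562 cells at 2×10^6 cells/mL given 10 μM compound for 30 min, heated in aliquots for 3 min across 48°C-58°C, pooled, and extracted in PBS with 0.5% NP-40 at 4°C, and was quantified by TMTpro 16plex LC-MS/MS with equalised channel sums. Thermal stability against control samples, from duplicates, is reported as log2 fold change.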

doramapimod = compound: Cc1ccc(-n2nc(C(C)(C)C)cc2NC(=O)Nc2ccc(OCCN3CCOCC3)c3ccccc23)cc1 [doramapimod]
Method in brief: as §1

tozasertib = compound: Cc1cc(Nc2cc(N3CCN(C)CC3)nc(Sc3ccc(NC(=O)C4CC4)cc3)n2)n[nH]1 [tozasertib]
Method in brief: as §1

mubritinib = compound: FC(F)(F)c1ccc(/C=C/c2nc(COc3ccc(CCCCn4ccnn4)cc3)co2)cc1 [mubritinib]
Method in brief: as §1

nilotinib = compound: Cc1cn(-c2cc(NC(=O)c3ccc(C)c(Nc4nccc(-c5cccnc5)n4)c3)cc(C(F)(F)F)c2)cn1 [nilotinib]
Method in brief: as §1

[1] = compound: Cc1nc(Nc2n[nH]c3c2CN(C(=O)N[C@H](CN(C)C)c2ccccc2)C3(C)C)c2sccc2n1
Method in brief: as §1

[2] = compound: Cc1ncc(-c2ccnc(Nc3ccc(S(C)(=O)=O)cc3)n2)n1C(C)C
Method in brief: as §1

[3] = compound: C[C@H](C1=CC=C(C=C1)C(=O)NC2=C3C=CNC3=NC=C2)N
Method in brief: as §1

duvelisib = compound: C[C@H](Nc1ncnc2nc[nH]c12)c1cc2cccc(Cl)c2c(=O)n1-c1ccccc1 [duvelisib]
Method in brief: as §1

gandotinib = compound: Cc1cc(Nc2cc(CN3CCOCC3)c3nc(C)c(Cc4ccc(Cl)cc4F)n3n2)n[nH]1 [gandotinib]
Method in brief: as §1

[4] = compound: Cc1cc(SCc2sc(-c3ccc(C(F)(F)F)cc3)nc2C)ccc1OCC(=O)O
Method in brief: as §1

bafetinib = compound: Cc1ccc(NC(=O)c2ccc(CN3CC[C@H](N(C)C)C3)c(C(F)(F)F)c2)cc1Nc1nccc(-c2cncnc2)n1 [bafetinib]
Method in brief: as §1

[5] = compound: Cc1cccc(CC(=O)N2CCc3c2ccc(-c2cn(C)c4ncnc(N)c24)c3F)n1
Method in brief: as §1

dasatinib = compound: Cc1nc(Nc2ncc(C(=O)Nc3c(C)cccc3Cl)s2)cc(N2CCN(CCO)CC2)n1 [dasatinib]
Method in brief: as §1

[6] = compound: Cn1cc(-c2ccc3c(c2)CCN3C(=O)Cc2cccc(C(F)(F)F)c2)c2c(N)ncnc21
Method in brief: as §1

tipifarnib = compound: Cn1cncc1[C@@](N)(c1ccc(Cl)cc1)c1ccc2c(c1)c(-c1cccc(Cl)c1)cc(=O)n2C [tipifarnib]
Method in brief: as §1

[7] = compound: C[C@@H]1COCCN1C2=NC(=NC(=C2)C3(CC3)S(=O)(=O)C)C4=C5C=CNC5=CC=C4
Method in brief: as §1

ispinesib = compound: Cc1ccc(C(=O)N(CCCN)[C@@H](c2nc3cc(Cl)ccc3c(=O)n2Cc2ccccc2)C(C)C)cc1 [ispinesib]
Method in brief: as §1

[8] = compound: Cn1cc(-c2ccc3nnc(C(F)(F)c4ccc5ncccc5c4)n3n2)cn1
Method in brief: as §1

Measured: log2 fold change

G6PD (UniProt E7EUI8)
inactive: crizotinib -0.046 | doramapimod 0.209

FUT4 (UniProt P22083)
inactive: crizotinib 0.026 | tozasertib -0.073 | doramapimod 0.151

G0S2 (UniProt P27469)
inactive: mubritinib -0.115

GANC (UniProt Q8TET4)
inactive: nilotinib 0.173 | [1] 0.093 | [2] 0.24

Reprinted at random: two records from the list
GANC (UniProt Q8TET4)
inactive: nilotinib 0.173 | [1] 0.093 | [2] 0.24

G0S2 (UniProt P27469)
inactive: mubritinib -0.115

The results go on.

FZR1 (UniProt Q9UM11)
inactive: crizotinib -0.105 | doramapimod 0.086

GABPB1 isoform 3 (UniProt Q06547)
inactive: [3] -0.339 | duvelisib 0.062 | gandotinib -0.117 | tozasertib 0.191 | [4] 0.118 | bafetinib -0.207 | [5] 0.056 | dasatinib -0.146 | [6] 0.372 | tipifarnib 0.216 | mubritinib -0.037

GEMIN7 (UniProt Q9H840)
inactive: [7] 0.158 | gandotinib 0.449 | [5] -0.119 | mubritinib 0.07

GDI2 (UniProt Q5SX86)
inactive: crizotinib 0.045 | [7] 0.111 | doramapimod 0.06 | ispinesib -0.23 | bafetinib 0.068 | [8] 0.178

GAPDH isoform 2 (UniProt P04406)
inactive: mubritinib 0.132

FRYL isoform 2 (UniProt O94915)
inactive: [7] 0.147 | [3] 0.064 | ispinesib -0.064 | [6] -0.08 | [8] -0.081 | tipifarnib 0.049

GCG (UniProt P01275)
inactive: [3] 0.278 | duvelisib -0.224 | [4] -0.168 | dasatinib 2.22 | [6] -0.22

GFOD2 (UniProt Q3B7J2)
inactive: [7] 0.003

GCC1 (UniProt Q96CN9)
inactive: crizotinib -0.347 | [7] 0.067 | gandotinib 0.307 | doramapimod 0.171 | ispinesib -0.24 | [5] -0.109 | nilotinib -0.021 | [1] -0.128 | [2] 0.007 | [8] 0.089

GANAB (UniProt Q14697)
inactive: tozasertib -0.445 | tipifarnib 0.249 | mubritinib 0.071

GALNT3 (UniProt Q14435)
inactive: gandotinib 0.251 | tozasertib 0.075 | [5] -0.235

GGACT (UniProt Q9BVM4)
inactive: ispinesib 0.076 | [8] -0.06 | mubritinib 0.086

FRMPD3 (UniProt Q5JV73)
inactive: [7] -0.166 | [3] 0.55 | tozasertib -0.122 | ispinesib -0.132 | bafetinib -0.682 | [6] 0.064 | [8] 0.382
